PubChem BioAssay AID1671195 – Yale University, 2021

Purpose: 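Regulators of LDL receptor activity judged by labelled LDL uptake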 (primary screen)
System: human Huh7 hepatoma cells
Reagents: siRNA pool against human genes, 18 nM
Timing: about 2 to 2.5 days of knockdown, then 8 h LDL uptake
Conditions: DiI-labelled LDL at 30 µg/ml for 8 h, in lipoprotein-deficient serum medium
Measured: 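Fluorescent LDL signal imaged in cells, scaled to the plate median, robust z-score for each replicate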
Reading the numbers: robust z-score: higher = more LDL uptake after knockdown
Rule for the call: 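Active when two or more replicates show a robust z-score above 2 or below -2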
Shown is an unselected part of about 22,000 deposited reagents. In the full data, about 1,510 (6.9%) were called active. 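Active includes knockdowns raising or lowering LDL uptake; positive z-scores mean more uptake, negative mean less.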

gene,"robust z-score, replicate 1","robust z-score, replicate 2","robust z-score, replicate 3",Call
SLC9B1,-0.407,-0.892,-1.25,inactive
PLEKHA3,0.0832,0.491,-0.0322,inactive
ASCL3,-0.532,-0.45,-0.281,inactive
CDYL2,-0.418,-0.785,-0.438,inactive
FAT3,-0.35,-0.272,0.148,inactive
CFAP107,-0.297,-0.817,-1,inactive
ARPP19,3.83,2.96,1.49,active
FHIT,1.64,1.56,1.69,inactive
ACCSL,1.02,0.893,0.79,inactive
PRKCH,-0.125,-1.63,-0.606,inactive
RPS12P8,0.214,0.124,-0.171,inactive
RAMP2,-0.188,-0.442,-1.02,inactive
HTR3A,-0.749,-0.525,-1.35,inactive
ZNF160,1.69,1.78,1.91,inactive
SEL1L,-0.0802,0.462,-1.21,inactive
FNDC5,0.684,0.118,0.335,inactive
LHX2,-0.56,0.573,-0.509,inactive
LOC400452 (retired record),-0.934,0.598,0.0664,inactive
RANBP10,0.181,0.685,0.991,inactive
AP3S2,-0.413,-0.994,1.69,inactive
F12,0.0502,2.7,0.0316,inactive
PSD4,0.857,1.52,-0.519,inactive
TMPRSS7,-0.293,0.276,-0.652,inactive
HS6ST3,0.28,-0.402,0.201,inactive
EPB41L4A-DT,0.164,2.44,2.7,active
CDH15,1.84,0.715,0.57,inactive
RAPGEF4,-0.03,-0.205,0.0208,inactive
LOC133993 (retired record),0.362,1.54,0.195,inactive
TWF1,-0.246,0.376,0.64,inactive
ASB7,3.8,1.75,6.02,active
SMCO1,-0.517,-0.536,-0.294,inactive
LCTL,1.1,-0.0816,-0.232,inactive
CALR,0.186,-0.158,0.147,inactive
LINC02209,-0.515,-1,-1.13,inactive
DUSP2,0.111,0.745,-0.122,inactive
NHEJ1,0.648,0.356,0.0975,inactive
ZBTB49,-0.112,-0.447,0.431,inactive
MYADML,1.8,-0.0697,1.73,inactive
N4BP1,0.201,0.798,-1.33,inactive
SLC24A1,1.45,0.31,1.01,inactive
FHL5,0.843,1.22,1.33,inactive
STARD8,0.738,1.63,1.73,inactive
PNKD,0.434,0.898,-0.67,inactive
KIF3B,-0.125,-0.42,-1.48,inactive
RANGAP1,-0.171,-0.828,0.546,inactive
PROCA1,1.45,2.33,3.18,active
ZMIZ1,-1.21,-0.247,0.195,inactive
EDARADD,-1.13,-0.255,0.382,inactive
MMP1,-0.97,-0.0926,-0.661,inactive
DYM,4.5,4.23,4.13,active
CAVIN4,0.125,0.181,-0.592,inactive
VSTM2B-DT,0.0039,0.221,0.531,inactive
TMCO5B,-0.473,-0.863,-0.626,inactive
KCNJ5,2.41,1.01,3.02,active
SLC25A33,0.404,0.853,0.776,inactive
ERG28,0.806,0.479,0.0939,inactive
KDR,-1.37,-0.985,-1.24,inactive
PHYHD1,1.63,1.22,1.28,inactive
G3BP2,0.917,1.44,1.68,inactive
PIWIL1,0.205,-0.482,0.607,inactive
ZNF594,0.0941,0.283,-0.266,inactive
OR5AP2,-1.27,-1.14,-1.2,inactive
DEXI,-3.23,-2.06,-3.42,active
EHF,1.34,2,2.13,active
METTL26,-0.849,-1.1,-1.16,inactive
LOC440426 (retired record),-0.497,0.148,-0.34,inactive
PCDH19,-1.85,-1.72,-1.99,inactive
ESCO2,0.272,0.022,0.839,inactive
